This is one part of the list.
Experiments:
Experiment in all cases: glycan array binding signal (z-score within array); higher = stronger binding
Conditions in all cases: glycan notation: IUPAC condensed, linker removed
Fuc(a1-2)Gal = target: Fuc(a1-2)Gal
How it was run: (§1)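 Columns mapping to the same glycan were averaged after glycan names were converted to IUPAC-condensed notation. The data come from 3228 arrays in the Consortium for Functional Glycomics database, limited to those with an available protein sequence. Binding is reported as a within-array Z-score averaged across arrays of one protein sequence and across linkers.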

Fuc(a1-2)Gal(b1-3)GalNAc = target: Fuc(a1-2)Gal(b1-3)GalNAc
How it was run: as §1

[1] = target: Fuc(a1-2)Gal(b1-3)GalNAc(a1-3)[Fuc(a1-2)]Gal(b1-4)Glc
How it was run: as §1

[2] = target: Fuc(a1-2)Gal(b1-3)GalNAc(a1-3)[Fuc(a1-2)]Gal(b1-4)GlcNAc
How it was run: as §1

[3] = target: Fuc(a1-2)Gal(b1-3)GalNAc(b1-3)Gal
How it was run: as §1

[4] = target: Fuc(a1-2)Gal(b1-3)GalNAc(b1-3)Gal(a1-4)Gal(b1-4)Glc
How it was run: as §1

[5] = target: Fuc(a1-2)Gal(b1-3)GalNAc(b1-4)[Neu5Ac(a2-3)]Gal(b1-4)Glc
How it was run: as §1

Fuc(a1-2)Gal(b1-3)GlcNAc = target: Fuc(a1-2)Gal(b1-3)GlcNAc
How it was run: as §1

[6] = target: Fuc(a1-2)Gal(b1-3)GlcNAc(b1-2)Man(a1-3)[Fuc(a1-2)Gal(b1-3)GlcNAc(b1-2)Man(a1-6)]Man(b1-4)GlcNAc(b1-4)GlcNAc
How it was run: as §1

[7] = target: Fuc(a1-2)Gal(b1-3)GlcNAc(b1-2)Man(a1-3)[Fuc(a1-2)Gal(b1-3)GlcNAc(b1-2)Man(a1-6)]Man(b1-4)GlcNAc(b1-4)[Fuc(a1-6)]GlcNAc
How it was run: as §1

[8] = target: Fuc(a1-2)Gal(b1-3)GlcNAc(b1-3)Gal(b1-4)Glc
How it was run: as §1

[9] = target: Fuc(a1-2)Gal(b1-3)GlcNAc(b1-3)GalNAc
How it was run: as §1

[10] = target: Fuc(a1-2)Gal(b1-3)GlcNAc(b1-3)[Fuc(a1-2)Gal(b1-3)GlcNAc(b1-6)]GalNAc
How it was run: as §1

[11] = target: Fuc(a1-2)Gal(b1-3)GlcNAc(b1-3)[Gal(b1-4)GlcNAc(b1-6)]Gal(b1-4)Glc
How it was run: as §1

[12] = target: Fuc(a1-2)Gal(b1-3)GlcNAc(b1-3)[Neu5Ac(a2-6)Gal(b1-4)GlcNAc(b1-6)]Gal(b1-4)Glc
How it was run: as §1

[13] = target: Fuc(a1-2)Gal(b1-3)GlcNAc6S
How it was run: as §1

[14] = target: Fuc(a1-2)Gal(b1-3)[Fuc(a1-4)]GlcNAc
How it was run: as §1

[15] = target: Fuc(a1-2)Gal(b1-3)[Fuc(a1-4)]GlcNAc(b1-2)Man(a1-3)[Fuc(a1-2)Gal(b1-3)[Fuc(a1-4)]GlcNAc(b1-2)Man(a1-3)]Man(b1-4)GlcNAc(b1-4)GlcNAc
How it was run: as §1

[16] = target: Fuc(a1-2)Gal(b1-3)[Fuc(a1-4)]GlcNAc(b1-2)Man(a1-3)[Fuc(a1-2)Gal(b1-3)[Fuc(a1-4)]GlcNAc(b1-2)Man(a1-6)]Man(b1-4)GlcNAc(b1-4)[Fuc(a1-6)]GlcNAc(b1-4)[Fuc(a1-6)]GlcNAc
How it was run: as §1

[17] = target: Fuc(a1-2)Gal(b1-3)[Fuc(a1-4)]GlcNAc(b1-3)[Fuc(a1-3)[Gal(b1-4)]GlcNAc(b1-6)]Gal(b1-4)Glc
How it was run: as §1

[18] = target: Fuc(a1-2)Gal(b1-3)[Fuc(a1-4)]GlcNAc(b1-3)[Gal(b1-4)GlcNAc(b1-6)]Gal(b1-4)Glc
How it was run: as §1

[19] = target: Fuc(a1-2)Gal(b1-4)Fuc(a1-3)]GlcNAc(b1-2)Man(a1-3)[Fuc(a1-2)Gal(b1-4)[Fuc(a1-3)]GlcNAc(b1-2)Man(a1-6)]Man(b1-4)GlcNAc(b1-4)GlcNAc
How it was run: as §1

Fuc(a1-2)Gal(b1-4)Glc = target: Fuc(a1-2)Gal(b1-4)Glc
How it was run: as §1

Fuc(a1-2)Gal(b1-4)Glc6S = target: Fuc(a1-2)Gal(b1-4)Glc6S
How it was run: as §1

Fuc(a1-2)Gal(b1-4)GlcNAc = target: Fuc(a1-2)Gal(b1-4)GlcNAc
How it was run: as §1

[20] = target: Fuc(a1-2)Gal(b1-4)GlcNAc(b1-2)Man
How it was run: as §1

[21] = target: Fuc(a1-2)Gal(b1-4)GlcNAc(b1-2)Man(a1-3)[Fuc(a1-2)Gal(b1-4)GlcNAc(b1-2)Man(a1-6)]Man(b1-4)GlcNAc(b1-4)GlcNAc
How it was run: as §1

[22] = target: Fuc(a1-2)Gal(b1-4)GlcNAc(b1-2)Man(a1-3)[Fuc(a1-2)Gal(b1-4)GlcNAc(b1-2)Man(a1-6)]Man(b1-4)GlcNAc(b1-4)[Fuc(a1-6)]GlcNAc
How it was run: as §1

[23] = target: Fuc(a1-2)Gal(b1-4)GlcNAc(b1-2)[Fuc(a1-2)Gal(b1-4)GlcNAc(b1-4)]Man(a1-3)[Fuc(a1-2)Gal(b1-4)GlcNAc(b1-2)Man(a1-6)]Man(b1-4)GlcNAc(b1-4)GlcNAc
How it was run: as §1

[24] = target: Fuc(a1-2)Gal(b1-4)GlcNAc(b1-3)Gal(b1-4)GlcNAc
How it was run: as §1

B1: AntigenI/IIA3VP1 (Streptococcus mutans), C9E3B4 (protein)
chain: AANEADYQAKLTAYQTELARVQKANADAKAAYEAAVAANNAANAALTAENTAIKKRNADAKADYEAKLAKYQADLAKYQKDLADYPVKLKAYEDEQASIKAALAELEKHKNEDGNLTEPSAQNLVYDLEPNANLSLTTDGKFLKASAVDDAFSKSTSKAKYDQKILQLDDLDITNLEQSNDVASSMELYGNFGDKAGWSTTVSNNSQVKWGSVLLERGQSATATYTNLQNSYYNGKKISKIVYKYTVDPKSKFQGQKVWLGIFTDPTLGVFASAYTGQVEKNTSIFIKNEFTFYDEDGKPINFDNALLSVASLNREHNSIEMAKDYSGKFVKISGSSIGEKNGMIYATDTLNFKQGEGGSRWTMYKNSQAGSGWDSSDAPNSWYGAGAIKMSGPNNYVTVGATSATNVMPVSDMPVVPGKDNTDGKKPNIWYSLNGKIRAVNVPKVTKEKPTPPVKPTAPTKPTYETEKPLKPAPVAPNYEKEPTPPTRLEHHHHHH
glycan array binding signal (z-score) (Fuc(a1-2)Gal): -0.141
glycan array binding signal (z-score) (Fuc(a1-2)Gal(b1-3)GalNAc): -0.049
glycan array binding signal (z-score) [1]: 0.028
glycan array binding signal (z-score) [2]: -1.02
glycan array binding signal (z-score) [3]: -0.871
glycan array binding signal (z-score) [4]: -1.54
glycan array binding signal (z-score) [5]: -0.35
glycan array binding signal (z-score) (Fuc(a1-2)Gal(b1-3)GlcNAc): -0.652
glycan array binding signal (z-score) [6]: 0.716
glycan array binding signal (z-score) [7]: 0.612
glycan array binding signal (z-score) [8]: -1.26
glycan array binding signal (z-score) [9]: 0.237
glycan array binding signal (z-score) [10]: 0.422
glycan array binding signal (z-score) [11]: -1.54
glycan array binding signal (z-score) [12]: -1.19
glycan array binding signal (z-score) [13]: 0.457
glycan array binding signal (z-score) [14]: 0.481
glycan array binding signal (z-score) [15]: 0.421
glycan array binding signal (z-score) [16]: 0.615
glycan array binding signal (z-score) [17]: -0.84
glycan array binding signal (z-score) [18]: -0.77
glycan array binding signal (z-score) [19]: 4.68
glycan array binding signal (z-score) (Fuc(a1-2)Gal(b1-4)Glc): -0.065
glycan array binding signal (z-score) (Fuc(a1-2)Gal(b1-4)Glc6S): 1.15
glycan array binding signal (z-score) (Fuc(a1-2)Gal(b1-4)GlcNAc): -0.565
glycan array binding signal (z-score) [20]: 1.39
glycan array binding signal (z-score) [21]: 1.5
glycan array binding signal (z-score) [22]: 1.11
glycan array binding signal (z-score) [23]: 0.656
glycan array binding signal (z-score) [24]: -1.04

Source: the supplement of paper PMC8728848
